One substance from PMC4022642 can be followed below.

Results are given in words; binding and its absence hold for the method and conditions named. In cells and extracts the contact can be indirect. These calls come from enrichment with a bait or labelling near it, and not all partners need be listed. Sequences can lack the tags named with a protein.

This assay deals with T1, TRESK-loop-His8 (amino acids 185-292 of mouse TRESK) (mouse) (UniProt Q6VV64).
T1 sequence: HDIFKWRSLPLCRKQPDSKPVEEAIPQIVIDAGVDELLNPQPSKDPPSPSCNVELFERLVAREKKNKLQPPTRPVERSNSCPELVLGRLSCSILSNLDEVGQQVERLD
In words: affinity purification with mass spectrometry; TRESK-loop-His8 (plain or PKA-phosphorylated) on a 1 ml Ni-NTA column; mouse brain cytosol first passed over a control Ni-NTA column; 50 mM to 2 M NaCl gradient, then elution with 7 M urea; SDS-PAGE, Coomassie, bands identified by mass spectrometry; only the target purified.

On to tubulin (mouse brain cytosol) (complex), for which the binding result is “binds”.
